Data published in PMC6695201.
No constants are given. Whether binding was seen depends on the method and setting. For some assays here: Binding calls can cover weak binding; strength is not graded here. Values belong to the molecule of their own block, whether it stands above or below them.

By UniProt entry, the sequences of proteins in these tests, tags left out.
UniProt P22216: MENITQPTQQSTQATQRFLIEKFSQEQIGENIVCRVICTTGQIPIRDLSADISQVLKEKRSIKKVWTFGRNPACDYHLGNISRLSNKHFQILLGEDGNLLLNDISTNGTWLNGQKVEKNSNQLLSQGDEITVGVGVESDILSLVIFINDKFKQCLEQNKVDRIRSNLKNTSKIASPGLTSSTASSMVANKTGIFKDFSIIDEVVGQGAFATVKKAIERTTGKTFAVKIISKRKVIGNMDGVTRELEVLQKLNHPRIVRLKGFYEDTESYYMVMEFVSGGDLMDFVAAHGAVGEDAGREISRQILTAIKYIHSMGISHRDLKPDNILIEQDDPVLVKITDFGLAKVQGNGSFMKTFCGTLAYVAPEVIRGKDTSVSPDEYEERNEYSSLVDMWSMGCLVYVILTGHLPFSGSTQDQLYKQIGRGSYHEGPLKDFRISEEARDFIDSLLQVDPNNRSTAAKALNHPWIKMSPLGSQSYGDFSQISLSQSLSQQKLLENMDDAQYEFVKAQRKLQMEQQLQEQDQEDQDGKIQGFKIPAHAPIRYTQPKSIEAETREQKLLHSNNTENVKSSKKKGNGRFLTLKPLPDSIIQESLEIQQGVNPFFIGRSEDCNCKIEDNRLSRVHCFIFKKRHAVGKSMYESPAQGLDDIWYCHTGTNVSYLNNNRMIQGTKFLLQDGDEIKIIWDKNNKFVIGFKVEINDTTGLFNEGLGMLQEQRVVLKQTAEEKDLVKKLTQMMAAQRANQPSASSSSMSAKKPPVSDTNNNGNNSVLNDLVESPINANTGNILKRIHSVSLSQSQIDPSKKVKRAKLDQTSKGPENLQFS

Experiments:
[1] = target: Rad53 (S. cerevisiae) (UniProt P22216); assay: two-hybrid; MCK1 in pGADT7, RAD53 in pGBKT7; strain AH109; growth on SC-Trp-Leu or SC-Trp-Leu-His plates with 0.5 mM 3-amino-triazole (3AT)
[2] = target: FHA1 domain of Rad53 (S. cerevisiae); assay: as above

binding [1]: no binding
Molecule: mck1-T6A (from UniProt P21965) (enzyme)

binding [2]: binds
B1: Mck1 (enzyme, UniProt P21965 1-375)
chain: MSTEEQNGVPLQRGSEFIADDVTSNKSNNTRRMLVKEYRKIGRGAFGTVVQAYLTQDKKNWLGPFAIKKVPAHTEYKSRELQILRIADHPNIVKLQYFFTHLSPQDNKVYQHLAMECLPETLQIEINRYVTNKLEMPLKHIRLYTYQIARGMLYLHGLGVCHRDIKPSNVLVDPETGVLKICDFGSAKKLEHNQPSISYICSRFYRAPELIIGCTQYTTQIDIWGLGCVMGEMLIGKAIFQGQEPLLQLREIAKLLGPPDKRFIFFSNPAYDGPLFSKPLFSGSSQQRFEKYFGHSGPDGIDLLMKILVYEPQQRLSPRRILAHQFFNELRNDDTFLPRGFTEPIKLPNLFDFNDFELQILGEFADKIKPTKVAE
